In the supplement of paper PMC4683952:
The other results are listed elsewhere or left out. Rule as the data show it: active = 2 or more and inactive = the rest. Repeats in this data set agree poorly, so a single value says little.

The compounds below were run on Lgr5 (MarsCy1-Lgr5-EGFP, U2OS) (assay: cell-surface Lgr5 expression (SCi1 fluorescence, background-subtracted) relative to WT DMSO (fold of DMSO control); higher = more Lgr5 at the plasma membrane). Conditions: U2OS MarsCy1-Lgr5-EGFP stable; treatment time: overnight; library: ActiProbe-5K (TimTec); 25 µM.

Row | Compound | cell-surface Lgr5 expression
1 | Nc1nnc(SCC(=O)Nc2nccs2)s1 | inactive: 1.34
2 | O=C(O)c1cc(=O)cc(C(=O)O)o1 | inactive: 1.02
3 | CCOC(=O)C1=C(C)NC(=O)NC1c1ccc(C)s1 (stereo unspecified) | inactive: 1.08
4 | O=C1c2cccnc2-c2[nH]c(=O)ccc21 | inactive: 0.975
5 | CC1CN(C)CC(C)C1=O (stereo unspecified) | inactive: 1.2
6 | O=C1OC(c2ccccc2)=C/C1=C/c1ccc2c(c1)OCO2 | inactive: 1.23
7 | N#Cc1sc2nc(-c3ccncc3)cc(C(F)(F)F)c2c1N | inactive: 1.44
8 | O=C(c1ccc2[nH]c(=O)oc2c1)c1ccc2[nH]c(=O)oc2c1 | inactive: 0.986
9 | Cc1cc(=O)n(C)c(=O)n1CCCCN1CCCC1 | inactive: 1.14
10 | CCCC1(C)NC(=S)N(c2ccccc2)N1 (stereo unspecified) | inactive: 1.33
11 | O=[N+]([O-])c1ccc(NCCNCCO)c([N+](=O)[O-])c1 | inactive: 1.44
12 | N#CC1=C(O)NC(S)=C(C#N)C1 | inactive: 1.3
13 | Oc1cc(-c2cccs2)n[nH]1 | inactive: 1.09
14 | CC(=O)Nc1sc(C)c(C)c1C(N)=O | inactive: 1.33
15 | Cn1c(S)nc2sc3c(c2c1=O)CCC(C(C)(C)C)C3 (stereo unspecified) | inactive: 0.888
16 | NNc1ncc([N+](=O)[O-])c2[nH]cnc12 | inactive: 0.908
17 | O=Cc1sc([O-])nc1-[n+]1ccccc1 | inactive: 1.38
18 | O=S(=O)(c1ccc(F)cc1)N1CCCC1 | inactive: 1.2
19 | O=C(CC12CC3CC(CC(C3)C1)C2)N1CCCOC1 | inactive: 1.19
20 | c1ccc(-c2nonc2/N=N/c2nonc2-c2ccccc2)cc1 | inactive: 1.26
21 | CC(C)(C)NS(=O)(=O)c1ccc2oc3cc(-n4cnnn4)ccc3c2c1 | inactive: 1.07
22 | C(=N/Nc1nncn1/N=C\c1cccs1)/c1cccs1 | inactive: 0.856

Entries shown so far that contain a carbonyl joined to an NH by a bond outside any ring (2):
Row | Compound | cell-surface Lgr5 expression
1 | Nc1nnc(SCC(=O)Nc2nccs2)s1 | inactive: 1.34
14 | CC(=O)Nc1sc(C)c(C)c1C(N)=O | inactive: 1.33

(list continues)

Row | Compound | cell-surface Lgr5 expression
23 | CC(C)CC(=O)Nc1nnc(CC(C)(C)C)s1 | inactive: 1.18
24 | CC1=C(C#N)C(=O)C(C#N)(C#N)C(C)(C)C1 | inactive: 1.58
25 | Nc1cc2c(cc1N1CCOC1=O)OCO2 | inactive: 1.33
26 | Cc1nn(CCC(=O)N(C)Cc2cnn(C)c2)c(C)c1Cl | inactive: 1.28
27 | Sc1nnc(COc2ccccc2)n1/N=C/c1c[nH]c2ccccc12 | inactive: 1.56
28 | O=c1ccc2cc(S(=O)(=O)N3CCCN(S(=O)(=O)c4ccc5oc(=O)ccc5c4)CC3)ccc2o1 | inactive: 1.48
29 | CNC(=S)Nc1ccc(Cl)cc1 | inactive: 1.35
30 | CSc1ccc(C2N(Cc3ccccc3)CCN2Cc2ccccc2)cc1 | inactive: 1.4
31 | Cc1nn(C)c2[nH]c(=O)cc(CCl)c12 | inactive: 1.2
32 | OCCN1CNC(=S)NC1 | inactive: 1.33
33 | Cc1nc([N+](=O)[O-])cn1Cc1nnc(N)s1 | inactive: 1.07
34 | CC(C)OC(=O)CNc1n[nH]c(=O)[nH]c1=O | inactive: 1.11
35 | CN(C)S(=O)(=O)N1CCN(c2ccccc2)CC1 | inactive: 1.16
36 | Cc1ccnn1CCCNc1[nH]ncc1[N+](=O)[O-] | inactive: 1.18
37 | O=C1Nc2ccccc2/C1=N\N1CCN(C2c3ccccc3-c3ccccc32)CC1 | active: 2.68
38 | CCCCc1[nH]nc2c1C1(CC[C@H]3CO[C@@H]1O3)C(C#N)=C(N)O2 (stereo partly specified) | inactive: 1.19
39 | N#CC1=C(N)C(C#N)(C#N)C(c2ccc(C3C4CCCC=C4C(C#N)=C(N)C3(C#N)C#N)cc2)C2CCCC=C12 (stereo unspecified) | inactive: 1.05
40 | FC(F)(F)c1nc2ccccc2n1Cc1cc(Cl)cc2c1OCOC2 | inactive: 1.18
41 | Cc1c(NC(=O)Sc2n[nH]c(=O)n2-c2ccccc2)c(=O)n(-c2ccccc2)n1C | inactive: 1.37
42 | CCOc1nc(C#N)nc(N2CCOCC2)n1 | inactive: 1.08
43 | Sc1nnc(Cn2cnc3ccccc32)n1-c1ccccc1 | inactive: 1.21
44 | Oc1nc([O][Na])nc2nc(SCc3ccccc3)sc12 | inactive: 1.35

Row | Compound | cell-surface Lgr5 expression
45 | CCCCCCCCC1CC1C(=O)O (stereo unspecified) | inactive: 1.04
46 | c1ccc2c(c1)CC1(CCCCC1)N=C2N1CCOCC1 | inactive: 1.26
47 | CCOCCOCn1c(C)c(N2CCCC2)c(=O)[nH]c1=O | inactive: 1.05
48 | Nc1nnnn1/N=C\c1cccn1-c1ccc(S(N)(=O)=O)cc1 | inactive: 0.903
49 | Fc1ccc(/C=N\c2ccc3cc4ccc(/N=C\c5ccc(F)cc5)cc4nc3c2)cc1 | active: 2.49
50 | O=C1[C@H]2OC[C@H](O2)[C@H]2[C@H]1[C@H]1C=Cc3ccccc3N1[C@@H]2C(=O)c1ccc(F)cc1 | inactive: 1.31
51 | N#Cc1cc2c(nc1SCc1cccc(C(F)(F)F)c1)CCC2 | inactive: 1.18
52 | O=C(O)c1cn(C2CC2)c2cc(Cl)c(F)cc2c1=O | inactive: 1.26
53 | COC(=O)[C@@H]1C[C@@H](O)CN1.Cl | inactive: 0.937
54 | COc1ccc2nc(/C(N)=N\O)sc2c1 | inactive: 1.14
55 | O=C1CSC2(C(=O)Nc3ccccc32)N1c1ccc(Br)cc1 (stereo unspecified) | inactive: 1.14
56 | COC1N(c2ccccc2)N=C(c2ccccc2)N1c1ccccc1 (stereo unspecified) | inactive: 1.04
57 | [O-][n+]1c2ccccc2[n+]([O-])c2c3ccccc3ccc21 | inactive: 0.997
58 | Cc1c(C)c2c(c(C)c1N)NC(=O)CO2 | inactive: 1.25
59 | O=C1OCCN1/N=C\c1ccc([N+](=O)[O-])o1 | inactive: 1.18
60 | O=C1CC2CS(=O)(=O)CC2N1c1ccc(OC(F)(F)F)cc1 (stereo unspecified) | inactive: 0.968
61 | O=C(O)CCCCCN1C(=O)/C(=C2/C(=O)Nc3ccc(Br)cc32)SC1=S | inactive: 1.41
62 | CCn1cc(C(=O)Nc2cnn(C)c2C(=O)NCc2cnn(C)c2)cn1 | inactive: 1.14
63 | CCCC(=O)Sc1[s+]sc2c1-c1cc(C)ccc1NC2(C)C.[Cl-] | inactive: 1.02
64 | C(#N)C(=C\C=c1\ccn(cc1)C1CCCCC1)/C#N | inactive: 0.722
65 | CCCCNC(=O)OCCSC(=S)NCCC | inactive: 1.22
66 | COC(=O)CN1N=C2c3ccccc3C(=O)c3cccc(c32)S1(=O)=O | inactive: 0.93
